# Reference: PubChem BioAssay AID977622 (Broad Institute, 2014)
# The other results are listed elsewhere or left out. Shown are side measurements of this screen, not its main read-out; they come without a call.
# Legend:
# [1] = growth inhibition of wild-type GFP E. coli, dose response, h38 mutant RFP, cherry-pick (AID 977622); conditions: E. coli mixed culture, 24 h, total growth OD600 at 50 uM
# [2] = system: E. coli h38 humanized mutant ribosome RFP fluorescence, mixed culture, 24 h; experiment: as above; conditions: h38 mutant RFP at 50 uM
Compound,activity change [1] [%],activity change [2] [%]
COC(=O)c1ccc2nc(-c3ccc(OC)c(OC)c3)c(Cc3ccc(C)cc3)n2c1,-18,-4.27
O=C(CN(CCO)c1ccccc1)Nc1cccc(S(=O)(=O)N2CCCC2)c1,-25.9,-3.44
O=C(CN1CCCCC1)Nc1ccccc1-c1ccccc1,-3.66,-3.37
C[C@@H]1CCCCO[C@H](CN(C)C)[C@H](C)CN([C@H](C)CO)C(=O)c2cc(NC(=O)Nc3cccc4ccccc34)ccc2O1,-12.5,-1.74
C[C@H]1CN([C@@H](C)CO)C(=O)c2c(c3ccccc3n2C)-c2ccccc2CO[C@@H]1CN(C)Cc1ccccc1,2.61,20.5
Fc1ccc(-n2cc(CNCCc3cccnc3)c(-c3ccccc3Cl)n2)cc1,-46.2,-9.89
COc1ccc(C(=O)C[n+]2ccc3c(c2)nc(-c2cc(OC)c(OC)cc2OC)n3C)cc1,-10.7,
COc1ccc(C(=O)N2C[C@H]3[C@@H](c4ccccc42)[C@@H](CO)N3Cc2ccc(Cl)cc2)cc1,-90.9,3.15
CCCNC(=O)c1cc(C2CCCN(S(=O)(=O)c3cccc4cccnc34)C2)on1 (stereo not given),-22.5,0.356
COc1ccccc1C1CC(=O)Oc2cc(C)c(Cl)cc21 (stereo not given),18.5,
COc1ccc(C(=O)Cn2c(C)nc([N+](=O)[O-])c2Br)cc1,0.434,-8.8
C#CCOc1nc(Nc2cccc([N+](=O)[O-])c2)nc(OCC#C)n1,-3.82,
Cc1ccc(N2C(=S)NC3c4cc(Cl)ccc4OC2(C)C3C(=O)N(C)C)cc1 (stereo not given),-13.4,
Cc1ccc(NC(=O)C2CCCN(c3ncnc4c3nc3n4CCCCC3)C2)cc1Cl (stereo not given),-17.5,
Cc1cc(Cl)n2ncc(-c3ccccc3)c2n1,-73.5,
O=S(=O)(c1ccc(F)cc1)N1C[C@@H]2N[C@H](C1)C2c1ccc(/C=C/c2ccccc2)cc1 (stereo not given in full),-67.7,11.1
COc1ccc2oc(C)c(C(=O)c3ccccc3)c2c1,-53.1,2.22
COc1ccc(NC(=O)COC(=O)CCCOc2ccc(Cl)cc2Cl)cc1Cl,-42,-22.2
CN1CCN(C(=O)C[C@@H]2CC[C@@H]3[C@H](COC[C@H](O)CN3C(=O)Nc3ccc(Cl)cc3)O2)CC1,-65.9,79.3
Cc1ccc(-c2c[n+](CC(=O)OCc3ccccc3)c3n2CCC3)cc1,7.61,45.1
CC(=O)Nc1ccc(CNc2nc(NCCN(C)C)nc3cc(-c4ccccc4)sc23)cc1,-1.24,-9.4
CSCCC1NC(=O)N(C(C)C(=O)Nc2cc(Cl)cc(Cl)c2)C1=O (stereo not given),-21.9,1.87

Compound,activity change [1] [%],activity change [2] [%]
COc1cc2nc(Nc3ccc(F)cc3)nc(N)c2cc1OC,-5.73,
O=C(Cn1c2[n+](c3ccc(C(F)(F)F)cc31)CCCCC2)c1ccc2c(c1)OCCO2,-44.2,11
COc1ccccc1N1CCN(Cc2ccc(OC)c3ccccc23)CC1,-24.5,-1.86
Cc1ccccc1S(=O)(=O)c1cc2ccccc2nc1N,-34.7,-8.93
COC(=O)c1c(C)oc(C)c1S(=O)(=O)Nc1ccc(C(C)C)cc1,-30.6,4.46
O=C(NCc1ccc2c(c1)OCO2)C1CCC(=O)N1C1CCCCC1 (stereo not given),-9.2,20.2
COc1ccccc1NC(=O)N1CCCCN2[C@@H](CO)[C@H](c3ccc(C#Cc4ccccc4)cc3)[C@@H]2C1,-41.8,84.3
CN(C)CCCNc1ccc(-c2cc(Nc3cccc(Cl)c3)ncn2)cn1,-33.2,-8.06
C[C@@H]1CCCCO[C@H](CN(C)C(=O)CCCN(C)C)[C@@H](C)CN([C@@H](C)CO)C(=O)c2cc(NC(=O)Nc3cccc4ccccc34)ccc2O1,-14.8,16.9
COc1ccc2oc(C(=O)NCc3ccco3)c(C)c2c1,-50.9,-20.3
Cc1cc(CNC(=O)c2cc(-c3ccccc3)nc3ccccc23)nn1C,3.77,23.2
CCC(=O)Nc1sc(Cc2ccc3c(c2)OCO3)c(C)c1C(N)=O,-4.99,-7.79
O=C(C[C@@H]1CC[C@@H]2[C@H](COC[C@H](O)CN2C(=O)Nc2ccc(Cl)cc2)O1)NCc1ccncn1,-73,6.98
CC(C)CC#Cc1ccc2c(c1)O[C@@H](CN(C)Cc1ccccn1)[C@H](C)CN([C@H](C)CO)S2(=O)=O,-68.6,104
CCN(c1ccccc1)S(=O)(=O)c1ccc(Cl)c(NC(=O)CSc2n[nH]c(N)n2)c1,-24,33.3
CC(C)(C)S(=O)(=O)Cc1nc(-c2ccc(Cl)c(Cl)c2)cs1,-15.6,-30.6
COc1cc(OC)cc(-c2nc3ccccc3c(=O)n2OC(=O)c2ccc(C)c(C)c2)c1,-6.1,
COc1ccccc1N(C1=NCCCS1)S(=O)(=O)c1ccc(C(C)(C)C)cc1,-23.7,6.04
COc1ccc(C(=O)CSc2nc3ccccc3n2CC(=O)c2ccccc2)cc1,-36.1,
CSc1ccccc1NC(=O)CN(C)CC(=O)c1c(C)[nH]c2ccccc12,-68.1,-7.23
Cc1ccc(S(=O)(=O)Nc2ccc3c(c2)C(=O)N([C@H](C)CO)C[C@@H](C)[C@H](CN(C)C(=O)c2ccccc2)OCCCC[C@@H](C)O3)cc1,-30.8,25
COc1cccc(C(=O)N2C[C@@H]3[C@H](c4ccccc42)[C@H](CO)N3Cc2ccccc2Cl)c1,-60.2,6.98

Compound,activity change [1] [%],activity change [2] [%]
O=C(O)CC1(CC(=O)Nc2ccc3sccc3c2)CCCCC1,-40.2,-37.9
O=C(Nc1cccc(Cl)c1)c1ccc(S(=O)(=O)NCC2CCCO2)cc1 (stereo not given),-45.8,-51.4
Cc1ccc(NC(=O)c2c(C)noc2-c2snnc2C)cc1,-39.5,18.7
CCN(CC)CCN(C(=O)C1CCCCC1)c1nc2cc3c(cc2s1)OCO3,-41.2,
Cc1ccccc1-n1ncc2c1CC(C)(C)CC2NC(=O)CCN1Cc2ccccc2C1=O (stereo not given),-20.7,-6.18
COc1ccc(CN2C(=O)NC(C)(c3ccc(C)cc3)C2=O)cc1F (stereo not given),-40.7,-12
COC(=O)c1ccc2nc(-c3cccc(Br)c3)c(Cc3ccsc3)n2c1,-26.9,-1.64
COc1ccccc1C(=O)Nc1ccc2c(c1)nc1n2CCN(C2CCCCC2)C1,-39.5,
O=C(c1cc(COc2c(F)cccc2F)on1)N1C[C@H]2CC[C@H]1C2,-23,-8.76
C=C1SC(Nc2c(C)cccc2C)=NC12CCCCC2,-79.8,
c1ccc(Sc2ncnc3ccccc23)cc1,-10.8,-3.52
O=C(O)CC1(CC(=O)NCc2ccc(-c3cccs3)cc2)CCCCC1,-40.4,-6.5
C[C@@H]1CCCCO[C@H](CN(C)C(=O)CCCN(C)C)[C@H](C)CN([C@@H](C)CO)C(=O)c2cc(NC(=O)Nc3cccc4ccccc34)ccc2O1,-30.5,-16.9
CCn1nc(C(=O)OCc2cccc(S(=O)(=O)N(C)C)c2)c2ccccc2c1=O,-30.9,-28.4
Fc1ccc(Br)cc1SCCc1ccncc1,-17.9,-15.7
O=C(Nc1cccc(O)c1)c1cc(-c2ccccc2Cl)on1,-41.3,-25.8
C[C@@H]1CN([C@@H](C)CO)C(=O)c2cc(NC(=O)C3CC3)ccc2O[C@H]1CN(C)C(=O)Nc1ccc(C(F)(F)F)cc1,-10.8,1.99
CCOC(=O)c1ccoc1CN1CCN(S(=O)(=O)c2ccc(C)c(C)c2)CC1,-28.3,
COc1cccc(C(NC(C)=O)c2nc(-c3ccccc3OC)cs2)c1 (stereo not given),-34.2,5.86
CCSc1nc2ccccc2c(=O)n1Cc1ccc(F)cc1,-42.2,35.6
Clc1ccccc1-c1nnc2sc(CCc3ccccc3)nn12,-69.1,30.8
CCN(CC)C(=O)c1sc2nc(-c3ccccc3)ccc2c1N,-59.3,-0.248

Compound,activity change [1] [%],activity change [2] [%]
COc1ccccc1Cn1c(=S)[nH]c2ccc(F)cc2c1=O,-16.2,
Cc1ccccc1OS(=O)(=O)c1cccc([N+](=O)[O-])c1,-32.4,7.17
Cc1nn(-c2ccc(N3CCCCC3)nn2)c(C)c1CCC(=O)Nc1ccc(F)cc1,-33,-21.3
COc1ccc2c(c1)c1ncn(Cc3ccccn3)c(=O)c1n2C,,1.28
Cc1ccc2oc(C(=O)N(CCO)Cc3ccccc3)c(C)c2c1,-57.5,4.93
COC(=O)C[C@H]1C[C@@H]2c3cc(NC(=O)Nc4ccc(C(F)(F)F)cc4)ccc3O[C@@H]2[C@H](CO)O1,-34,-14.5
CC(=O)Nc1ccc(OCc2nnc(-c3ccccc3)o2)cc1,-23.2,19.2
O=C(CCc1nc2ccccc2s1)OCC(=O)c1ccc[nH]1,-28.9,4.21
O=C(O)c1ccc(Oc2ccc([N+](=O)[O-])cc2)c([N+](=O)[O-])c1,-17.3,57.6
CC(=O)Nc1ccc(/C=C/c2ccc3cccc([N+](=O)[O-])c3n2)cc1,-45.5,-14.9
N#Cc1ccsc1NC(=O)CSc1nnc(NC2CC2)s1,-32.3,-17.6
COc1ccc(CC(=O)Nc2nc(-c3cc(OC)ccc3OC)cs2)cc1,-49.8,
CCCc1nc2cc(C)c(Br)c(C)n2c1CC1CCCCC1,-65.6,-9.07
c1ccc(-c2sc3ccccc3c2-c2ccc(OCCN3CCCCC3)cc2)cc1,,4.12
Cc1cccc(S(=O)(=O)Nc2ccc(-c3cn4ccccc4n3)cc2)c1,-75.6,-5.78
Cc1ccc(NC(=O)C2CCN(S(=O)(=O)c3ccc4c(c3)NC(=O)CO4)CC2)cc1,-22,
CN(C)C(=O)c1ccc(NC(=O)CSc2nc3ccccc3[nH]2)cc1,-34.5,
O=C1c2ccccc2C(c2nnnn2Cc2ccccc2)N1Cc1cccc(F)c1 (stereo not given),5.71,22.1
O=C(Nc1ccc(Nc2ccccc2)cc1)c1c(Cl)cccc1Cl,-65.8,-1.62
O=C(Nc1cccc(Cl)c1)N1C[C@@H]2[C@H](c3ccccc31)[C@H](CO)N2C(=O)c1cccnc1,-46,8.17
Cc1cccc(CN2C(=O)c3ccccc3Sc3ccc(C(=O)NCCN4CCOCC4)cc32)c1,-20.5,-3.03

# Part of the list above, as tab-separated lines.
Compound	activity change [1] [%]	activity change [2] [%]
CCCc1nc2cc(C)c(Br)c(C)n2c1CC1CCCCC1	-65.6	-9.07
c1ccc(-c2sc3ccccc3c2-c2ccc(OCCN3CCCCC3)cc2)cc1		4.12
Cc1cccc(S(=O)(=O)Nc2ccc(-c3cn4ccccc4n3)cc2)c1	-75.6	-5.78
Cc1ccc(NC(=O)C2CCN(S(=O)(=O)c3ccc4c(c3)NC(=O)CO4)CC2)cc1	-22	
CN(C)C(=O)c1ccc(NC(=O)CSc2nc3ccccc3[nH]2)cc1	-34.5	
